Measurements reported in patent US11365193B2, “Oxadiazole compound and fungicide for agricultural and horticultural use” (Nippon Soda Co., Ltd., priority 2017, dated 2022).
Some of these results come from one statement about several compounds together.

What was measured:
Format in all cases: in vivo
[1] = test system: wheat red rust pathogen (Puccinia recondita); assay: Test Example 5: wheat red rust disease control test, residual efficacy test (25 ppm); settings: residual efficacy: 25 ppm by mass sprayed on wheat seedlings (Norin 61), inoculated 7 days after spraying; blotch area ratio 12 days after inoculation
[2] = test system: wheat red rust pathogen (Puccinia recondita); assay: Test Example 6: wheat red rust disease control test, residual efficacy test (6.3 ppm); settings: residual efficacy: 6.3 ppm by mass sprayed on wheat seedlings (Norin 61), inoculated 7 days after spraying; blotch area ratio 12 days after inoculation
[3] = test system: wheat leaf blotch pathogen (Septoria tritici); assay: Test Example 4: wheat leaf blotch disease control test (6.3 ppm); settings: 6.3 ppm by mass sprayed on wheat young seedlings (Apogee), inoculated after air-drying; humid 3 days, then 18 to 25 days under illumination

| SMILES | Control value [1] [%] | Control value [2] [%] | Control value [3] [%] |
| --- | --- | --- | --- |
| O=C(Cn1ncccc1=O)c1ccc(-c2noc(C(F)(F)F)n2)cc1 [Compound 1-15] | ≥ 75 | – | – |
| Cc1noc2cnn(Cc3ccc(-c4noc(C(F)(F)F)n4)cc3)c(=O)c12 [Compound 1-21] | ≥ 75 | – | – |
| Cc1nc2c(cnn2C)c(=O)n1Cc1ccc(-c2noc(C(F)(F)F)n2)cc1 [Compound 1-23] | ≥ 75 | ≥ 75 | – |
| Cc1cc(=O)n(Cc2ccc(-c3noc(C(F)(F)F)n3)cc2)cn1 [Compound 2-19] | ≥ 75 | – | – |
| CSc1cnn(Cc2ccc(-c3noc(C(F)(F)F)n3)cc2)c(=O)c1 [Compound 2-21] | ≥ 75 | ≥ 75 | – |
| COc1cnn(Cc2ccc(-c3noc(C(F)(F)F)n3)cc2)c(=O)c1Cl [Compound 2-22] | ≥ 75 | ≥ 75 | – |
| Cc1nc(C)n(Cc2ccc(-c3noc(C(F)(F)F)n3)cc2)c(=O)c1Cl [Compound 2-40] | ≥ 75 | ≥ 75 | – |
| COc1ncc(F)c(=O)n1Cc1ccc(-c2noc(C(F)(F)F)n2)cc1 [Compound 2-42] | ≥ 75 | – | – |
| COc1cnn(Cc2ccc(-c3noc(C(F)(F)F)n3)cc2)c(=O)c1 [Compound 2-43] | ≥ 75 | – | – |
| CCCc1c(C)ncn(Cc2ccc(-c3noc(C(F)(F)F)n3)cc2)c1=O [Compound 2-44] | ≥ 75 | ≥ 75 | – |
| Cc1ncn(Cc2ccc(-c3noc(C(F)(F)F)n3)cc2)c(=O)c1Cl [Compound 2-45] | ≥ 75 | ≥ 75 | – |
| COc1cc(=O)n(Cc2ccc(-c3noc(C(F)(F)F)n3)cc2)cn1 [Compound 2-49] | ≥ 75 | ≥ 75 | ≥ 75 |
| COCCOc1cc(=O)n(Cc2ccc(-c3noc(C(F)(F)F)n3)cc2)cn1 [Compound 2-51] | ≥ 75 | ≥ 75 | ≥ 75 |
| CCON=C1CN(C(=O)Cc2ccc(-c3noc(C(F)(F)F)n3)cc2)C1 [Compound 5] | ≥ 75 | ≥ 75 | ≥ 75 |
